This note sets out measurements from US20200040058A1 (JULIUS MAXIMILIANS UNIVERSIT T W RZBURG, published 2020).

Amino acid sequences for entries named in this document (tags omitted). Residues count along the entry.
UniProt Q01973, residues 30-403: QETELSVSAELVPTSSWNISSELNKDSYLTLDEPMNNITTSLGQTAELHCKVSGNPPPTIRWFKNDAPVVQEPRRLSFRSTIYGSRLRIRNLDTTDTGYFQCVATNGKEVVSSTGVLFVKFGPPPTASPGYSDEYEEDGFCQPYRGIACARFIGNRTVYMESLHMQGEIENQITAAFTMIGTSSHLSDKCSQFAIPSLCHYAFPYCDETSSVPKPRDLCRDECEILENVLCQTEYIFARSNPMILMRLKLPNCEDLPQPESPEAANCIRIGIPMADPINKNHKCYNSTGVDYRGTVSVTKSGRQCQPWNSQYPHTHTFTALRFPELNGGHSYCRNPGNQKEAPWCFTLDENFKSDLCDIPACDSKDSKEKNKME

No constants are given. Whether binding was seen depends on the method and setting. Some entries that bind do so weakly or less than the wild type.

The target in assay [1] is Recombinant aggregated ROR1 protein, AlexaFluor647-labeled (UniProt Q01973). Nature of the assay: flow cytometry; CAR T cells stained with AlexaFluor647-labeled aggregated ROR1. A general note: Flow cytometry measures light scatter and fluorescence of single cells or particles in a stream.
Assay [2] has the same target. Nature of the assay: flow cytometry; CAR T cells stained with 5.3 µg/ml AlexaFluor647-labeled aggregated ROR1.

B1: humanized 2A2 ROR1 CAR (other)
chain: EVQLVQSGAEVKKPGASVKVSCKASGYTFSDYEMHWVRQAPGQGLEWLGAIDPETGGTAYNQKFKGRVTMTGDTSISTAYMELSRLTSDDTAVYYCTGYYDYDSFTYWGQGTLVSVSSGGGGSGGGGSGGGGSDIQMTQSPSSLSTSVGDRVTITCKASQNVDAAVAWYQQKPGKAPKLLIYSASNRYTGVASRFSGSGSGTDFTFTISSLQSEDLADYFCQQYDIYPYTFGQGTKLEIKESKYGPPCPPCPMFWVLVVVGGVLACYSLLVTVAFIIFWVKRGRKKLLYIFKQPFMRPVQTTQEEDGCSCRFPEEEEGGCELRVKFSRSADAPAYQQGQNQLYNELNLGRREEYDVLDKRRGRDPEMGGKPRRKNPQEGLYNELQKDKMAEAYSEIGMKGERRRGKGHDGLYQGLSTATKDTYDALHMQALPPR
notes: Chimeric antigen receptor with an scFv targeting domain, expressed on primary human T cells after lentiviral transduction; also called h2A2 CAR; h2A2
With B1, the binding result in assay [1] and in assay [2] was “binds” throughout.
